From publication PMC7617797
The exact form of at least one protein or probe is not confirmed. Weaker means in comparison with the reference protein, sequence or condition of that experiment. For some assays here: At least one verdict rests on a figure or table, not on a statement of the authors.

Sequences of proteins named here, by UniProt entry; tags and fusion partners are left off. A change or cut given only in a name is not applied to a line headed by its entry.
UniProt Q9BQ15: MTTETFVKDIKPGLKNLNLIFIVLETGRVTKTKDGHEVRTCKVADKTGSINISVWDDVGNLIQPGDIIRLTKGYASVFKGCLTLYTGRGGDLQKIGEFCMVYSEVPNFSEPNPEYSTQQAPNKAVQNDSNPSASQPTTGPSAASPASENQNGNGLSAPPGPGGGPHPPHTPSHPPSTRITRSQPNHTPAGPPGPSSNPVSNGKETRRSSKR

How the values were obtained:
RPA = assay: EMSA; conditions: affinity similar to all substrates except bubble; EMSA: 25 mM Tris-HCl pH 7.5, 1 mM DTT, 5 mM MgCl2, 100 mM NaCl, 20 min at 37 C; 10 nM substrate; protein 22-167 nM (RPA 5-40 nM); 7.5% native PAGE, 0.5x TBE, 4 C; recombinant protein; label: 5' Cy3 on strand 1
hSSB1 (Homo sapiens) = hSSB1 (Homo sapiens) (UniProt Q9BQ15); assay: competition EMSA; conditions: substrate pre-coated with RPA (10 or 30 nM); EMSA: 25 mM Tris-HCl pH 7.5, 1 mM DTT, 5 mM MgCl2, 100 mM NaCl, 20 min at 37 C; 10 nM substrate; protein 22-167 nM (RPA 5-40 nM); 7.5% native PAGE, 0.5x TBE, 4 C; recombinant protein; protein details: His6 (2BT); label: 5' Cy3; single-stranded DNA

Sequence	binding result (RPA)	binding result (hSSB1 (Homo sapiens))
GACGCTGCCGAATTCTACCAGTGCCTTGCTAGGACATCTTTGCCCACCTGCAGGTTCACCC / GGGTGAACCTGCAGGTGGGCGGCTGCTCATCGTAGGTTAGTTGGTAGAATTCGGCAGCGTC [bubble DNA]	binds more weakly	
GACGCTGCCGAATTCTACCAGTGCCTTGCTAGGACATCTTTGCCCACCTGCAGGTTCACCC [61-mer ssDNA]		binds more weakly
